# Structures can show the parent of a compound that is named as a salt. Some of the results follow. Single values are uncertain here, since repeats match poorly.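 Human fetal ventral-midbrain neural progenitor line ReNCell VM, differentiated without mitogens. Images stained for doublecortin (early neurons) or tyrosine hydroxylase (dopaminergic neurons) were scored by blinded raters against untreated wells (0 = no change). Repeats and both raters were averaged, and compounds averaging 2 or higher were picked as hits for retesting.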
# Key:
# [1] = tested on: ReNCell VM; test: neuronal differentiation score (DCX+ cell fraction vs untreated, manual image score) (score (-3 to 3)); higher = more neuronal differentiation; settings: 2 uM, 2 weeks
# [2] = tested on: ReNCell VM; test: dopaminergic neuron differentiation score (TH+ cell fraction vs untreated, manual image score) (score (0 to 3)); higher = more TH+ dopaminergic neuron differentiation; settings: 2 uM, 4 weeks, BDNF 10 ng/ml + GDNF 10 ng/ml
structure (smiles),measurement,setting,value
C[C@@H]1NC(=O)NC1=O [Methylhydantoin-5-(L)],neuronal differentiation score,[1]; library: Prestwick,inactive: 0
same,dopaminergic neuron differentiation score,[2]; library: Prestwick,inactive: 0
Clc1ccc2c(c1)C(N1CCNCC1)=Nc1ccccc1O2,neuronal differentiation score,[1]; library: Spectrum,inactive: 0
same,dopaminergic neuron differentiation score,[2]; library: Spectrum,inactive: 0
COC(=O)[C@H]1[C@H]2C[C@H]3c4[nH]c5ccccc5c4CCN3C[C@@H]2CC[C@@H]1O,neuronal differentiation score,[1]; library: Spectrum,inactive: 0
same,dopaminergic neuron differentiation score,[2]; library: Spectrum,inactive: 0
CC(C)=CCCC1(C)C=Cc2c(O)c3c(c(CC=C(C)C)c2O1)OC12C(=CCCC1C(C)(C)O[C@@]2(C/C=C(\C)C(=O)O)C(=O)O)C3=O (stereo partly drawn),neuronal differentiation score,[1]; library: Spectrum,inactive: 0
same,dopaminergic neuron differentiation score,[2]; library: Spectrum,inactive: 0
CO/N=C(\C(=O)N[C@@H]1C(=O)N2C(C(=O)O)=C(COC(C)=O)CS[C@H]12)c1csc(N)n1 [Cefotaxime sodium salt],neuronal differentiation score,[1]; library: Prestwick,inactive: 1
same,dopaminergic neuron differentiation score,[2]; library: Prestwick,active: 2
C[C@H](CCC(=O)O)[C@H]1CC[C@H]2[C@@H]3C(=O)C[C@@H]4CC(=O)CC[C@]4(C)[C@H]3CC(=O)[C@]12C [Dehydrocholic acid],neuronal differentiation score,[1]; library: Prestwick,inactive: 0
same,dopaminergic neuron differentiation score,[2]; library: Prestwick,inactive: 0
OC[C@H]1O[C@@](CO)(O[C@H]2O[C@H](CO)[C@@H](O)[C@H](O)[C@H]2O)[C@@H](O[C@H]2O[C@H](CO)[C@@H](O)[C@H](O)[C@H]2O)[C@@H]1O,neuronal differentiation score,[1]; library: Spectrum,inactive: 0
same,dopaminergic neuron differentiation score,[2]; library: Spectrum,inactive: 0
CC1(C)O[C@@H]2C[C@H]3[C@@H]4CCC5=CC(=O)C=C[C@]5(C)[C@@]4(F)[C@@H](O)C[C@]3(C)[C@]2(C(=O)CO)O1 [Triamcinolone acetonide],neuronal differentiation score,[1]; library: Phytochemical,inactive: 0
same,dopaminergic neuron differentiation score,[2]; library: Phytochemical,inactive: 0
COC(=O)Nc1nc2cc([S+]([O-])c3ccccc3)ccc2[nH]1 (stereo not drawn) [Oxfendazol],neuronal differentiation score,[1]; library: Prestwick,inactive: 0
same,dopaminergic neuron differentiation score,[2]; library: Prestwick,inactive: 0

# 2 entries from above, with bars between the fields:
structure (smiles) | measurement | setting | value
CC1(C)O[C@@H]2C[C@H]3[C@@H]4CCC5=CC(=O)C=C[C@]5(C)[C@@]4(F)[C@@H](O)C[C@]3(C)[C@]2(C(=O)CO)O1 [Triamcinolone acetonide] | dopaminergic neuron differentiation score | [2]; library: Phytochemical | inactive: 0
COC(=O)Nc1nc2cc([S+]([O-])c3ccccc3)ccc2[nH]1 (stereo not drawn) [Oxfendazol] | neuronal differentiation score | [1]; library: Prestwick | inactive: 0

# — the supplement of paper PMC4635364
